{
  "sequences": {"note": "The chains behind the UniProt entries cited, without tags or fusion partners. Where a name states a change or a piece, a line headed by the entry shows the natural chain unless it says otherwise.", "UniProt P05556": "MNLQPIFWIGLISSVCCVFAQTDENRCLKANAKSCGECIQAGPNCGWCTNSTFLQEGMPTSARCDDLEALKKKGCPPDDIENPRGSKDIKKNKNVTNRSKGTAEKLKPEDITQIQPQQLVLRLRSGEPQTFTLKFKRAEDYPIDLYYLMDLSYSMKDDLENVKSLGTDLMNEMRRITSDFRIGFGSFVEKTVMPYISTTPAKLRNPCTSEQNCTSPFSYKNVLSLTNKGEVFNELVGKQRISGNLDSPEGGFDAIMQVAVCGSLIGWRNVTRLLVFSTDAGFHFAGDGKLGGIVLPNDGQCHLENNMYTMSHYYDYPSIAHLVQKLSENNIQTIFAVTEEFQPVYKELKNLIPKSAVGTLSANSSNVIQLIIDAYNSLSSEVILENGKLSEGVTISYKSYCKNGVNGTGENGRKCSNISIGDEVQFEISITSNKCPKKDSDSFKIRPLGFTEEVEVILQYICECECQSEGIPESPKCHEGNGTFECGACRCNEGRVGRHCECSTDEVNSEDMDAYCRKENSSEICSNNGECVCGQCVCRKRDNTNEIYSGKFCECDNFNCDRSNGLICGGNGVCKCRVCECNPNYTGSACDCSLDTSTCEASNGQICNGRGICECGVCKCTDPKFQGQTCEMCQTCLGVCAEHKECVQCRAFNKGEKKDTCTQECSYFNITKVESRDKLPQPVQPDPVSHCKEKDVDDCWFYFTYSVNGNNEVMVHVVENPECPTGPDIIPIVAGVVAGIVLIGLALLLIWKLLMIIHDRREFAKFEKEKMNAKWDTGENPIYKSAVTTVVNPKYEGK"},
  "source": "paper PMC10323252",
  "biological_target": "GST–β1 integrin cytoplasmic tail truncations (UniProt P05556)",
  "assay": "pull-down; GST-β1 integrin cytoplasmic tail truncations on glutathione-agarose beads, incubated with His-Rab25 loaded with GTPγS for 2 h at 4°C; SDS-PAGE, Coomassie Blue staining or western blotting; both purified",
  "note": "No constants are given. Whether binding was seen depends on the method and setting. Binding calls can cover weak binding; strength is not graded here. Sequences can lack the tags named with a protein.",
  "data": [
    {"binder": "His–Rab25 GTPγS (protein, UniProt P57735 1-213) MGNGTEEDYNFVFKVVLIGESGVGKTNLLSRFTRNEFSHDSRTTIGVEFSTRTVMLGTAAVKAQIWDTAGLERYRAITSAYYRGAVGALLVFDLTKHQTYAVVERWLKELYDHAEATIVVMLVGNKSDLSQAREVPTEEARMFAENNGLLFLETSALDSTNVELAFETVLKEIFAKVSKQRQNSIRTNAITLGSAQAGQEPGPGEKRACCISL", "values": [
      {"measurement": "binding", "result": "binds"}
    ]}
  ]
}
